Results on one substance are retold here after paper doi:10.1101/2022.09.01.506260.

Results are given in words; binding and its absence hold for the method and conditions named. Binding seen in cells or lysates may run through a third protein. Tags and fused reporters may be left off the sequences shown.

The target of this assay is T1, HA-tagged PEAK3^FL-S69A mutant (human) (UniProt Q6ZS72).
T1 sequence: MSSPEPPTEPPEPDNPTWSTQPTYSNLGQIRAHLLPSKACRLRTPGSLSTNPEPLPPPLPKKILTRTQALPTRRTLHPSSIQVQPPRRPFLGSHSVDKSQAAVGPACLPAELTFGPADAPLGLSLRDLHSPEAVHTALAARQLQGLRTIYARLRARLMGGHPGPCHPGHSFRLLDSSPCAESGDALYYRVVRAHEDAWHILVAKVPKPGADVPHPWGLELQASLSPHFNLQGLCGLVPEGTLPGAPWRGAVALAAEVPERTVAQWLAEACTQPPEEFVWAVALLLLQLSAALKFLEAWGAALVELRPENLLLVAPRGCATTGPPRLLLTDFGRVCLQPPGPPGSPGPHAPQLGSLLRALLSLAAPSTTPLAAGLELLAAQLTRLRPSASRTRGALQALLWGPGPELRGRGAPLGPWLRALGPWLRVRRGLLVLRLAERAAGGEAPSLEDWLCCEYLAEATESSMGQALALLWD
As to the kind of experiment: co-IP.

With “endogenous 14-3-3 (HEK293) (human (endogenous in HEK293))”, the binding result is “no binding”.
